This note sets out measurements from paper PMC3262014.

Amino acid sequences for entries named in this document (tags omitted).
UniProt O00629: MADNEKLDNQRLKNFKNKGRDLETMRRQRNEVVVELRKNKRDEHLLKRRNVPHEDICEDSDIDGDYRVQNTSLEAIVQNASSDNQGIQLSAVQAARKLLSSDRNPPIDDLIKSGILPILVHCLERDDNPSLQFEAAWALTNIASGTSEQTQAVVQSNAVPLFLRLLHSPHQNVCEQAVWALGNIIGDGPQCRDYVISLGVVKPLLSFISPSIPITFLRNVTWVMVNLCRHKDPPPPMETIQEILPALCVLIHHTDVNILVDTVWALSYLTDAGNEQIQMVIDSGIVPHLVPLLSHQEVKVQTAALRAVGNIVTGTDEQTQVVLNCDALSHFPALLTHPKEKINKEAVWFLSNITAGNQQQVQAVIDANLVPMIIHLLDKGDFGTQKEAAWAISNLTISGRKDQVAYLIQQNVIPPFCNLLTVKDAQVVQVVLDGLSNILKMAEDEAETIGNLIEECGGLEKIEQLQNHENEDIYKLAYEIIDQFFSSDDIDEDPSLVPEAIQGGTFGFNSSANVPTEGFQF
UniProt O00505: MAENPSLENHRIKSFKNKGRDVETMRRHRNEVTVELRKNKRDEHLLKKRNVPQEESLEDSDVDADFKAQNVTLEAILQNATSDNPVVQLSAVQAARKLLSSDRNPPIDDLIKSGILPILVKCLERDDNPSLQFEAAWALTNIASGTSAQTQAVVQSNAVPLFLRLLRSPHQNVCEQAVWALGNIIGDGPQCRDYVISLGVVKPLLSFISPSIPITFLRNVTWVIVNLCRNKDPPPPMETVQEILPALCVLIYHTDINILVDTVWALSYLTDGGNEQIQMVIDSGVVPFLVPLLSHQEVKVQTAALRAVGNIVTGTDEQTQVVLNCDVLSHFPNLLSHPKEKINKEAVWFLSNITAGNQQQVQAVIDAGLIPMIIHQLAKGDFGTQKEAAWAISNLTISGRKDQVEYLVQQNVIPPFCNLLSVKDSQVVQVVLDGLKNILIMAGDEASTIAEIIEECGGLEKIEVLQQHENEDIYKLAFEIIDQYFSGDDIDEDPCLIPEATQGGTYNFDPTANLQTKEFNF
UniProt P52294: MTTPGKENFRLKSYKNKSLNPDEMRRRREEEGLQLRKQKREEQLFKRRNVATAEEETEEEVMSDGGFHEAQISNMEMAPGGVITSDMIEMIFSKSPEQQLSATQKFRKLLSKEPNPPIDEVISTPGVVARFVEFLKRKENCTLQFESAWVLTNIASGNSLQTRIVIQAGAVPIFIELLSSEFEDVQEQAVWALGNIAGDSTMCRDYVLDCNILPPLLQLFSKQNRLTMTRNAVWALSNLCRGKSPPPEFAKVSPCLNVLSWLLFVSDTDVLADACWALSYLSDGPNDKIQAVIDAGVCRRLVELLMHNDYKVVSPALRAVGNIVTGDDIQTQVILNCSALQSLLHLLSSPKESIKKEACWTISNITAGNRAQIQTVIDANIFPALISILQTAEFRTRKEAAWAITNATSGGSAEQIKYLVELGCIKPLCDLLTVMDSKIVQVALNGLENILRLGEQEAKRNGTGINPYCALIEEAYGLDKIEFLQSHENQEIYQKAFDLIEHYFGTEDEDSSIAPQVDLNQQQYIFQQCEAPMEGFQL
UniProt P15682: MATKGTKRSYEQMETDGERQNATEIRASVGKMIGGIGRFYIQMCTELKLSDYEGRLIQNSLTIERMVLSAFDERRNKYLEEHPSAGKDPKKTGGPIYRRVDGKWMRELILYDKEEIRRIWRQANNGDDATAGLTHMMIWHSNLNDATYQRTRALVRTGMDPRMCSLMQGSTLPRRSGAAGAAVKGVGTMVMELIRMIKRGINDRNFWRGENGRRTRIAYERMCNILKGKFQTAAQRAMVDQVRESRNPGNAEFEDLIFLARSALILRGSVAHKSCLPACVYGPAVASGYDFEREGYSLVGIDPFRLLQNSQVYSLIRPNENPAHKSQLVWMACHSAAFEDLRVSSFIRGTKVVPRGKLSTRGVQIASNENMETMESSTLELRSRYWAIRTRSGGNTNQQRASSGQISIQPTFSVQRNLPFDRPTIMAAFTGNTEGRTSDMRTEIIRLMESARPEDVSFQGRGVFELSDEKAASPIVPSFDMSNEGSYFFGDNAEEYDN
UniProt Q14974: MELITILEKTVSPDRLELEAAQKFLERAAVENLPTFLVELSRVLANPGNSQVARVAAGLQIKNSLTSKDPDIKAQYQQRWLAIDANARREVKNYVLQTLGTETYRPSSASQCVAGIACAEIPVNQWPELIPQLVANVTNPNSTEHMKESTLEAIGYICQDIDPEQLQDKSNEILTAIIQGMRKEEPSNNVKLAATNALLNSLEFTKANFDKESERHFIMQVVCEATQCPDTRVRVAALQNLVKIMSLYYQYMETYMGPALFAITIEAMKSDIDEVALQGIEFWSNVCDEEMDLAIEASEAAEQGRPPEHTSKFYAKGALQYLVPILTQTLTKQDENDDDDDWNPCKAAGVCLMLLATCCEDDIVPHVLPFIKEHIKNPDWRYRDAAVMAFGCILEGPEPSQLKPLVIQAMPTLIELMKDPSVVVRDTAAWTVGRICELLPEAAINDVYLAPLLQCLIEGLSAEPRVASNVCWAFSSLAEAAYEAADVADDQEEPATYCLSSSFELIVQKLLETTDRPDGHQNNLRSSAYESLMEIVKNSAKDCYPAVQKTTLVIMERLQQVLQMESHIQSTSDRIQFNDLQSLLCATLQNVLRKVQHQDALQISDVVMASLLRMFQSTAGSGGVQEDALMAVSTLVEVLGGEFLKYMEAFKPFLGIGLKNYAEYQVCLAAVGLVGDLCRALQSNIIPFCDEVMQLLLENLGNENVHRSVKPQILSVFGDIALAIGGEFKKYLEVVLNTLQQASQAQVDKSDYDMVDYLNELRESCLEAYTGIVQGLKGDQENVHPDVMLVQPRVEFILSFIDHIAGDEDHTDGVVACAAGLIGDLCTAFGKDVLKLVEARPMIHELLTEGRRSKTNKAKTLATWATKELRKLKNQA

These are yes or no findings as the source states them, for the method shown. Binding seen in cells or lysates may run through a third protein. Some results given as binding are weak or reduced against the parent protein; the word gives no strength.

Some targets named below: importin-α3-FLAG (human) (UniProt O00629); importin-α4-FLAG (human) (UniProt O00505); importin-α7-FLAG (human) (UniProt O60684); importin-α5-FLAG (human) (UniProt P52294).
Common to all, as to experiment: co-IP
For test [1], the target named is WSN-NP-FLAG (influenza A virus A/WSN/33 (H1N1)) (UniProt P15682).

As to “NP of recombinant A/WSN/33 virus in infected cells (from UniProt P15682 1-498)”, the binding entry with importin-α3-FLAG (human), in the test with importin-α4-FLAG (human), with importin-α7-FLAG (human) and with importin-α5-FLAG (human) was “binds” each time.
In the case of WSN-NP (from UniProt P15682 1-498), the binding result with importin-α3-FLAG (human), with importin-α4-FLAG (human), in the test with importin-α7-FLAG (human) and in the test with importin-α5-FLAG (human) was “binds” in each case.
Consider “importin-α3 (endogenous) (from UniProt O00629 1-521)”, for which, in test [1], the binding entry is reported as “binds”.
Consider “importin-α4 (endogenous) (from UniProt O00505 1-521)”, for which the binding result in test [1] was “binds”.
On the same count and under the same terms, the value for “importin-α5 (endogenous) (from UniProt P52294 1-538)” was “binds”.
As for “importin-α7 (endogenous) (from UniProt O60684 1-536)”, the binding entry in test [1] was “binds”.
Consider “importin-β1 (endogenous) (from UniProt Q14974 1-876)”, for which the binding result (with importin-α3-FLAG (human); with importin-α4-FLAG (human); with importin-α7-FLAG (human); in the test with importin-α5-FLAG (human); in test [1]) was “binds” each time.
